From article PMC2323224
Results are given in words; binding and its absence hold for the method and conditions named. Some binding calls cover weakened binding; strength is not graded here. One block for each binder: values may come before it.

Experiments:
Assay in all cases: two-hybrid; LexA-based yeast two-hybrid; full length ORFs as LexA BD fusions (MAL62 promoter, strain Y309) mated with AD fusions (GAL1 promoter, strain RFY231); two-phase pooled matrix screen plus a library screen of 94 BD strains; LEU2 and lacZ reporters, background-corrected combined score >= 1; positives retested in one-on-one matings
[1] = target: T1, ExbD3 (C. jejuni NCTC11168) (UniProt Q0PC27)
T1 sequence: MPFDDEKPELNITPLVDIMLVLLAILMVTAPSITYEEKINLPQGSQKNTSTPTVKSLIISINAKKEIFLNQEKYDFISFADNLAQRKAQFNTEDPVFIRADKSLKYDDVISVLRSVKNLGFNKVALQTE

[2] = target: T2, IlvH (C. jejuni NCTC11168) (UniProt Q0PAU2)
T2 sequence: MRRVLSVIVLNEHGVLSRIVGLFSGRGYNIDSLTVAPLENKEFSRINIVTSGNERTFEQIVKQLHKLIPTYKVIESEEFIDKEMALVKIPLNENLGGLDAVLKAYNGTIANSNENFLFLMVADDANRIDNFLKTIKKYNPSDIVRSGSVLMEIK

[3] = target: T3, DnaN (C. jejuni NCTC11168) (UniProt Q0PCC3)
T3 sequence: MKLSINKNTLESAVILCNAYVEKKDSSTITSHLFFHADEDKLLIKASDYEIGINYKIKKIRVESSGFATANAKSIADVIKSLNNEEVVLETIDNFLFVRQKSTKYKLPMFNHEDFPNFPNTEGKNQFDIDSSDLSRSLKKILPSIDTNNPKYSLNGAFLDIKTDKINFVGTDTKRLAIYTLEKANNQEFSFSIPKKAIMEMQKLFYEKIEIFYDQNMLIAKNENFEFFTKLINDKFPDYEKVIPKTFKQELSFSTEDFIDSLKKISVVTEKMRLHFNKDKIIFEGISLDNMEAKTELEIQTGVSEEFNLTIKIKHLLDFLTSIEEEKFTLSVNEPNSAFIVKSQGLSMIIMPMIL

[4] = target: T4, TrxB (C. jejuni NCTC11168) (UniProt Q0PBZ1)
T4 sequence: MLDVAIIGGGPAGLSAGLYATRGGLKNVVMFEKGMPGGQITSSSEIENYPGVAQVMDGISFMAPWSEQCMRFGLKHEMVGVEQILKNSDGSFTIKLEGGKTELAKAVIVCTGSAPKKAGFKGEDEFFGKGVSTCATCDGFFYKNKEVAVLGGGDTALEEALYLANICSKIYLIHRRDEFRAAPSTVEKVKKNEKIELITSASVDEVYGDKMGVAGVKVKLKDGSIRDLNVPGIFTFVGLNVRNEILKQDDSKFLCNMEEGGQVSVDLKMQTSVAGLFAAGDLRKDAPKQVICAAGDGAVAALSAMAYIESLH

[5] = substrate: T5, SSB (C. jejuni NCTC11168) (UniProt O69302)
T5 sequence: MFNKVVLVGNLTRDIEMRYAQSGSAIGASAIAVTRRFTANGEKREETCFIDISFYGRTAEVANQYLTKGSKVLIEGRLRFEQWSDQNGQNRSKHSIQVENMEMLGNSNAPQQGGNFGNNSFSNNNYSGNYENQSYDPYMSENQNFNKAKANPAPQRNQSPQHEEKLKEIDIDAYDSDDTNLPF

binding [4]: binds
B4: TrxA (protein, UniProt Q0PBZ0 1-104)
chain: MGKYIELTSDNFAQAKEGVALVDFWAPWCGPCRMLAPVIDELSNDFDGKAKICKVNTDEQGDLAAEFGVRSIPTLIFFKNGEVVDQLVGAQSKQAISDKLNSLL

binding [5]: binds
B5: RecJ (protein, UniProt Q0PC97 1-523)
chain: MKIINKNEIKKILASRFEKDLHTKLCDLPLPCCLKDAYKAANRIKEAVEKNEKVAIVGDYDVDGIISCVIMAEFFDDIGFDYIIRIPNRFKDGYGLNAEIINELDVNLIITVDNGIAALEAAKLCKEKNIDLIITDHHMPQDILPDAFAIINPKQKDCDFPEIEICGAQVAWYLIAALKEVCKLKYDMCKFLELLAIAIVADMMELRDLNRALVRRGIDHINKSKRAAFRAIKHYYQKDKFALDNIGFLIAPLINSAGRMDDASISYEFLHTKDFNKALEYLEQIVSFNESRKDEEKQLFEDSLNQIDENDSCIVVSGLNWHEGVLGIVASRLAKHFNKPAFVFSQNEEHLKGSARSVGKIDILALISKTNSILSNYGGHKGAAGISLNSENFEQFKNKIKKECSQISESEFLDTDEILGILEPSEIDFEMLEILESFEPFGHKNPRPFFVLENLCVKNKKLLGKDEKHLKLVLTKENKTIEALFFNFDKEPELNQNISLLGSISKNEFRGMVTPQFVVKEIL

More lines, now with the values behind:

B1: ExbD1 (protein, UniProt Q0PBV9 1-136)
chain: MIKTEMAHKEEELSEINITPFIDIMLVLLIVFMAVTPLITSSIKIELPKSSQQAEDKLKNPIILYLNTDNTLAINDDKLSLENLSSALDIKTKGNKEEIIYFHIDKSVKYEDIMQVMQKLKENGYGKIALSSKKMD
binding [1]: binds

B2: IlvI (protein, UniProt Q0PAU3 1-566)
chain: MKELSGSAMICEALKEENVKIVFGYPGGAALNIYDEIYNQKYFKHILVRHEQAALHAADAYARMSGEVGVAIVTSGPGFTNTITGLATAYSDSIPLVLISGQVANSLIGTDAFQEIDAVGISRPCVKHNYLVTCIEEFPRILKEAFYIARSGRPGPVHIDVPKDVSATLGLWEYSKEISMKTYKPVYKGNSKQIKKFAELLKEAKRPLFYLGGGCISSNASEQIRELIKFTKIPAVETLMALGTLRSDDVFNLKMAGMHGSYAANMALSECDLLVSVGARFDDRITGKTSEFAKHATIVHVDIDPSSISKIINAHYPIVGDIKEVLKELLEELKKENFNTTFKEWHETLKRYNELYPLSYEDSNEILKPQWVIEECAKMAPDARIITDVGQHQMWVAQFYPFNYPRQLATSGGQGTMGYSLPAALGAKLAVGEEVVINFVGDGSVLMNIQELMTAYEYGIKAINIILNNAFLGMVRQWQSMFYKEHFSQTDLSTQPDFIKIAQGFGCEGYEISNKEEFIQAFSQALKSDKTSLLNVKIDRFEDVLPMVPAGGAIYNMILPKAKDRQ
binding [2]: binds

B3: DnaX (protein, UniProt Q0P999 1-509)
chain: MLQALAIKYRPKTFDELIGQKTVSVSLKYALNHNRLAHAYLFSGLRGSGKTSSARIFSRALVCEQGPSDTPCGTCKHCLAALEGKHIDIIEMDAASNRGLEDIQALIEQTKYTPSMARFKIFIIDEVHMLTPQAANALLKTLEEPPSYVKFILATTDPLKLPATVLSRTQHFRFKQIPQSEILNHLKEILLKENVKFEEEALKFIARSGNGSLRDTLTLLDQAIIFCQNEISISKITDMLGFLDPQKIKAFYQAILTKDKEKVFVYLEELQDYEASSVIDEMLFYLKESFFAKSTEFSTLIYERFFRILSKAKNMLCDDDGFTLCVMAFMMMEASHLKEIDAQIQEIKQENTTNIISRITPSPIIPHLEKKTEKNAYEILLDSIYDRDFDLAECFKQSTNFISFENNTLNINSNAQGQNRDTLNKGFKLIQELFKAKFGENAKINVQKALTIDENKLQSLTQELPNNENKNIDIQSSINMLKEGAKKFDPQEDLKEALKDCFGEPSIEN
binding [3]: binds
